{
  "sequences": {"note": "The chains behind the UniProt entries cited, without tags or fusion partners.", "UniProt Q14191, whole entry, looked up": "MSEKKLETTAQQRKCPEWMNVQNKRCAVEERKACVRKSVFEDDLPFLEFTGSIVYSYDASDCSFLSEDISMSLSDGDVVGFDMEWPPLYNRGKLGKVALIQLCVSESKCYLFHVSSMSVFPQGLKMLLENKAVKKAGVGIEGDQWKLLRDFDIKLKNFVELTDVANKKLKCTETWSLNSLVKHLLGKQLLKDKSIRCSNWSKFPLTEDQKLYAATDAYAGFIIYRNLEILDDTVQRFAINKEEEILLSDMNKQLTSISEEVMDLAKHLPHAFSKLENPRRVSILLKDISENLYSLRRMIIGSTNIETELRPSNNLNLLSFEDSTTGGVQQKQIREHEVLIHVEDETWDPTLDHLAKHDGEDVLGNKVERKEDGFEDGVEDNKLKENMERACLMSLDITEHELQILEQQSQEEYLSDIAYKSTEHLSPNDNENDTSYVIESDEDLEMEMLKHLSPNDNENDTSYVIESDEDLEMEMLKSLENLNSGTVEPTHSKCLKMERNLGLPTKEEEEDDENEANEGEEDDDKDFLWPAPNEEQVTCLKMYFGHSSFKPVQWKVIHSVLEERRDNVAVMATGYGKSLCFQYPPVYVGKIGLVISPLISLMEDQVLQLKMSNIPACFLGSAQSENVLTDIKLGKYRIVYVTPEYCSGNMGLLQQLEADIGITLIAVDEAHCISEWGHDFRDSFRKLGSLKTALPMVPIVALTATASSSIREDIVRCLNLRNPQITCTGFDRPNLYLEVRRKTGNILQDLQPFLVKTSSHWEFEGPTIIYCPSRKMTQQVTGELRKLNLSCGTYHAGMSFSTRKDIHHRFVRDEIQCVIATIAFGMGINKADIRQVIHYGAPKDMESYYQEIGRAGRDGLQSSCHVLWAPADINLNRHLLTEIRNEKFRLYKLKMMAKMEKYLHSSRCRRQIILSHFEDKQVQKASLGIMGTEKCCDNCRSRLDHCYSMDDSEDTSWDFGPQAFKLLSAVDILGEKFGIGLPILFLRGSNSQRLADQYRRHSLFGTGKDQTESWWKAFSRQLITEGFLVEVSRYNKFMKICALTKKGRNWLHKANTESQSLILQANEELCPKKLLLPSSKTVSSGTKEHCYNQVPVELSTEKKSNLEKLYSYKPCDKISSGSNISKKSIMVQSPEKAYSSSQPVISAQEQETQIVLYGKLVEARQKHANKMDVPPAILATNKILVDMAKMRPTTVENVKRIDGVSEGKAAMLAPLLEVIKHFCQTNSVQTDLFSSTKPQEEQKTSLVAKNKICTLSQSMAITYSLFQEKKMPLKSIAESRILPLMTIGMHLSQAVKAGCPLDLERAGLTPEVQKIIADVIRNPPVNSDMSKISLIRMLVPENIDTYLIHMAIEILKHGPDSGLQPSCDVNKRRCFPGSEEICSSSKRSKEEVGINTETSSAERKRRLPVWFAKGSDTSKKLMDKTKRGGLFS"},
  "source": "PubChem BioAssay AID651768",
  "about": "(National Center for Advancing Translational Sciences (NCATS), 2012)",
  "note": "In all, about 360,000 compounds went through this assay and about 1,700 (0.47%) were called active. Inconclusive means that the source gave no clear call. Such entries were picked first, then a sample of the others. Calls come from the whole dose curve; as a rule, active = well fitted inhibition curve with a large enough effect; inconclusive = small, poorly fitted or top-dose-only effect; inactive = no such curve, though single readings can be large or run the other way. A potency beside an inconclusive call is a rough fit, not a confirmed value. Potency is the fitted concentration of half-maximal effect.",
  "data": [
    {"target": "Bifunctional 3'-5' exonuclease/ATP-dependent helicase WRN (Homo sapiens) (UniProt Q14191)", "assay": "qHTS for Inhibitors of WRN Helicase; note: nearly all actives have a fitted effect of over 55% in size", "conditions": "WRN helicase unwinding, fluorescent forked duplex, kinetic; series mostly up to 114 µM", "summary_of_the_method": "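Screening of the MLSMR collection measured strand separation of a quenched forked DNA duplex (100 nM) by 20 nM WRN with 2 mM ATP, all final. Compounds were preincubated with enzyme 15 min at room temperature.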", "values": [
      {"molecule": "O=C(O)CSc1cc(C(=O)c2ccccc2O)cn2c(=O)c3c4c(sc3nc12)CCCC4", "Potency": "active: 44.7 µM"},
      {"molecule": "Cc1n[nH]c(C)c1Sc1ccccc1[N+](=O)[O-]", "Potency": "inactive"},
      {"molecule": "Cn1c(N2CCN(C(c3ccccc3)c3ccccc3)CC2)nc2ccccc21", "Potency": "inconclusive: 79.4 µM [inhibitor, single point]"},
      {"molecule": "O=C(CN(Cc1ccco1)C(=O)CNS(=O)(=O)c1ccc(Cl)cc1)NCc1ccc(F)cc1", "Potency": "inactive"},
      {"molecule": "Oc1cccc(C=NCc2ccccc2)c1O", "Potency": "active: 39.8 µM"},
      {"molecule": "CCOc1ccc(Nc2cc3n(c(=O)n2)CCc2cc(OC)c(OC)cc2-3)cc1", "Potency": "inconclusive: 31.6 µM [inhibitor, partial curve]"},
      {"molecule": "CCN(CC)S(=O)(=O)c1ccc(C(=O)NCc2n[nH]c(=S)n2-c2ccc(Cl)c(Cl)c2)cc1", "Potency": "inactive"},
      {"molecule": "Cn1c(COc2ccc(Br)cc2)nnc1SC1CCc2ccccc2C1=O", "note": "(stereo unspecified)", "Potency": "inconclusive: 89.1 µM [inhibitor, single point]"},
      {"molecule": "COc1cccc(-c2coc3c(C)c4oc(=O)c(CCC(=O)O)c(C)c4cc23)c1", "Potency": "inconclusive: 50.1 µM [inhibitor, partial curve]"},
      {"molecule": "O=C(COC(=O)CCNS(=O)(=O)c1cccc(C(F)(F)F)c1)NC(=O)NC1CCCCC1", "Potency": "inactive"},
      {"molecule": "O=C1CC(c2ccco2)CC(O)=C1C=Nc1cc(Cl)cc(Cl)c1", "note": "(stereo unspecified)", "Potency": "inconclusive: 56.2 µM [inhibitor, partial curve]"},
      {"molecule": "COc1ccc(N2CCc3c(C)nc4c(OC)cc(OC)cc4c32)c(OC)c1", "Potency": "inactive"},
      {"molecule": "O=C(CCC(C(=O)O)N1C(=O)c2ccccc2C1=O)Nc1ccccc1", "note": "(stereo unspecified)", "Potency": "inconclusive: 10 µM [inhibitor, partial curve]"},
      {"molecule": "CC1=C([N+](=O)[O-])C(c2ccccc2)C2=C(N1)c1ccccc1C2=O", "note": "(stereo unspecified)", "Potency": "inconclusive: 31.6 µM [inhibitor, full curve]"},
      {"molecule": "CCN(CC(=O)Nc1ccc(NC(C)=O)cc1)C(=O)c1ccccc1CCc1ccccc1", "Potency": "inconclusive: 39.8 µM [inhibitor, single point]"},
      {"molecule": "O=C(O)CCC(=O)Nc1nc2nc(-c3ccccc3)cc(-c3ccccc3)n2n1", "Potency": "inactive"},
      {"molecule": "CCN(CC)c1ccc(NC(=O)CSc2ccsc2[N+](=O)[O-])c(C)c1", "Potency": "inconclusive: 44.7 µM [inhibitor, partial curve]"},
      {"molecule": "CCN1/C(=C\\c2ccc3cc(C)ccc3[n+]2CC)Sc2cc(C)c(C)cc21", "Potency": "active: 44.7 µM"},
      {"molecule": "CC1=NC(=O)C(N=Nc2ccccc2C(=O)O)N1c1ccccc1", "note": "(stereo unspecified)", "Potency": "inconclusive: 22.4 µM [inhibitor, single point]"},
      {"molecule": "O=C(Nc1nnc(-c2ccc(F)cc2)s1)c1ccco1", "Potency": "inactive"},
      {"molecule": "Cc1ccc2nc(Cl)c(/C=N/NC(=O)c3ccccc3O)cc2c1", "Potency": "inconclusive: 39.8 µM [inhibitor, partial curve]"},
      {"molecule": "CCc1cc(=O)oc2cc(OCC(=O)N3CCC(C(N)=O)CC3)ccc12", "Potency": "inactive"},
      {"molecule": "CC(=O)c1ccc(-c2cnc3c(NC=O)cc(-c4ccc(C(=O)NC5CC5)cc4)cn23)cc1", "Potency": "inconclusive: 28.2 µM [inhibitor, single point]"},
      {"molecule": "COC(=O)C1=C(C(=O)OC)C(C(=O)OC)C(C(=O)OC)C(C(=O)OC)(C(=O)OC)C(C(=O)OC)=C1C(=O)OC", "note": "(stereo unspecified)", "Potency": "inconclusive: 56.2 µM [inhibitor, partial curve]"},
      {"molecule": "CC(OC(=O)CNC(=O)c1ccco1)C(=O)N(C)c1ccccc1", "note": "(stereo unspecified)", "Potency": "inactive"},
      {"molecule": "O=C(Cn1cnc2scc(-c3ccccc3)c2c1=O)NCc1ccco1", "Potency": "inactive"},
      {"molecule": "CCOc1cc(CNCc2ccccc2)ccc1OCc1ccc(Cl)cc1", "Potency": "inactive"},
      {"molecule": "COCCCn1c(SCC(=O)NC2CCCC2)nnc1-c1ccncc1", "Potency": "inactive"},
      {"molecule": "O=C(N/N=C/c1ccc(Cl)c([N+](=O)[O-])c1)c1ccc2c(c1)OCCO2", "Potency": "inconclusive: 50.1 µM [inhibitor, partial curve]"},
      {"molecule": "Cn1c(N)c(C(=O)COC(=O)Cc2ccc(Cl)cc2Cl)c(=O)n(C)c1=O", "Potency": "inactive"},
      {"molecule": "CCOC(=O)C1=C(O)/C(=C/c2ccc(CNC(=O)C(=O)Nc3ccc(C)cc3)o2)N=C1C", "Potency": "inconclusive: 89.1 µM [inhibitor, single point]"},
      {"molecule": "O=C(CSc1ccc2ccccc2c1)Nc1ccc(S(=O)(=O)Nc2nccs2)cc1", "Potency": "inconclusive: 50.1 µM [inhibitor, partial curve]"},
      {"molecule": "Cc1cc(-c2ccccc2)nc2c(Br)c(C(=O)O)nn12", "Potency": "inconclusive: 35.5 µM [inhibitor, single point]"},
      {"molecule": "COc1ccc(S(=O)(=O)N2CCN(C(=O)c3cc4c(s3)CCC4)CC2)cc1", "Potency": "active: 35.5 µM"},
      {"molecule": "CN(C)c1ccc([C@@H]2[C@@H]([N+](=O)[O-])[C@H]3C=Cc4ccccc4N3[C@H]2C(=O)c2ccc(Cl)cc2)cc1", "Potency": "inconclusive: 20 µM [inhibitor, single point]"},
      {"molecule": "CC1CCN(CCCn2c(=S)[nH]c3c(sc4ccc([N+](=O)[O-])cc43)c2=O)CC1", "Potency": "inconclusive: 17.8 µM [inhibitor, full curve, poor fit]"},
      {"molecule": "O=C(/C=C/c1cccc(F)c1)OCC(=O)N1CCCC1", "Potency": "inactive"},
      {"molecule": "O=C(CCN1C(=O)S/C(=C\\c2cccs2)C1=O)Nc1nccs1", "Potency": "inactive"},
      {"molecule": "Cc1oc2ccc(NS(=O)(=O)c3ccc(C(C)(C)C)cc3)cc2c1C(=O)Nc1ccccc1", "Potency": "inconclusive: 56.2 µM [inhibitor, partial curve, poor fit]"},
      {"molecule": "Cc1cccc(NC(=O)CC2SC(=O)N(c3ccccc3)C2=O)c1", "note": "(stereo unspecified)", "Potency": "active: 100 µM"},
      {"molecule": "O=C(O)CCCN1C(=O)/C(=C\\c2ccco2)SC1=S", "Potency": "inconclusive: 28.2 µM [inhibitor, full curve]"},
      {"molecule": "O=C(NN1C(=O)C2C(c3ccccc3)C=CC(c3ccccc3)C2C1=O)c1cccc(Br)c1", "note": "(stereo unspecified)", "Potency": "inconclusive: 22.4 µM [inhibitor, single point]"},
      {"molecule": "COc1ccc(/C=C/C(=O)N2CCCc3ccccc32)c(OC)c1", "Potency": "inconclusive: 89.1 µM [inhibitor, single point]"},
      {"molecule": "CCCSc1nc(O)c(C(c2ccc(OC)c(O)c2)c2c(O)nc(SCCC)n(C)c2=O)c(=O)n1C", "Potency": "inconclusive: 50.1 µM [inhibitor, partial curve]"},
      {"molecule": "Cc1ccc(S(=O)(=O)NCC(=O)NCC2COc3ccccc3O2)cc1C", "note": "(stereo unspecified)", "Potency": "inactive"},
      {"molecule": "CC(=O)Sc1nc(-c2ccccc2)[nH]c1S(=O)(=O)c1ccc(C)cc1", "Potency": "inconclusive: 70.8 µM [inhibitor, single point]"},
      {"molecule": "CCOC(=O)c1sc(=S)n(C)c1NC(=O)c1ccccc1Cl", "Potency": "inconclusive: 89.1 µM [inhibitor, partial curve]"},
      {"molecule": "COc1cc(CNCc2ccncc2)cc(Br)c1OCc1ccccc1F", "Potency": "inactive"},
      {"molecule": "Cc1cccc(N2CC(O)(c3cccs3)[N+]3=C2CCCCC3)c1", "note": "(stereo unspecified)", "Potency": "inconclusive: 79.4 µM [inhibitor, single point]"},
      {"molecule": "CCCCn1c(N)c(N(CC(C)C)C(=O)c2cc(-c3ccc(OC)cc3)nc3ccccc23)c(=O)[nH]c1=O", "Potency": "inactive"},
      {"molecule": "O=C(NCC[C@H]1CC[C@H](NS(=O)(=O)c2ccccc2F)[C@@H](CO)O1)c1ccc(F)cc1", "Potency": "inactive"},
      {"molecule": "CS(=O)(=O)c1ccc(C(=O)OCC(=O)NC(=O)C2CCCCC2)cc1[N+](=O)[O-]", "Potency": "inconclusive: 31.6 µM [inhibitor, partial curve, poor fit]"},
      {"molecule": "COc1ccc(N=Cc2sc(O)c3ccccc23)cc1", "Potency": "inconclusive: 44.7 µM [inhibitor, full curve, poor fit]"},
      {"molecule": "O=C(Nc1ccc(Cl)cc1N1CCOCC1)C1CCCCC1", "Potency": "inactive"},
      {"molecule": "COc1ccc(NC(=O)c2cc3ccccc3o2)cc1S(=O)(=O)N1CCCCC1", "Potency": "inconclusive: 15.8 µM [inhibitor, full curve, poor fit]"},
      {"molecule": "CC(NC(=O)COC(=O)CNC(=O)c1ccccc1Cl)C1CC2CCC1C2", "note": "(stereo unspecified)", "Potency": "inconclusive: 31.6 µM [inhibitor, full curve, poor fit]"},
      {"molecule": "NC(=O)C1CCCN(Cc2ccc3ccccc3c2)C1", "note": "(stereo unspecified)", "Potency": "inactive"},
      {"molecule": "c1ccc2c(c1)N1CCN=C1N2CCN1CCCCC1", "Potency": "inactive"},
      {"molecule": "CCn1c(SCC(=O)NC2CC2)nnc1-c1ccc(OC)cc1", "Potency": "inconclusive: 89.1 µM [inhibitor, single point]"},
      {"molecule": "C=CC(=O)Nc1cccc(N(C)c2ccnc(Nc3ccc(N4CCN(C)CC4)cc3)n2)c1", "Potency": "inconclusive: 56.2 µM [inhibitor, partial curve]"},
      {"molecule": "CC(=O)Nc1ccc2c(c1)Cc1cc(N3C(=O)C=CC3=O)ccc1-2", "Potency": "active: 35.5 µM"},
      {"molecule": "Cc1c(C(=O)O)c(O)cc2c1C(=O)c1c(O)c([C@@H]3O[C@H](CO)[C@@H](O)[C@H](O)[C@H]3O)c(O)c(O)c1C2=O", "Potency": "active: 31.6 µM"},
      {"molecule": "CC(C)c1ccc(Nc2nnc(SCC(=O)c3nnc(-c4ccccc4)o3)s2)cc1", "Potency": "inconclusive: 50.1 µM [inhibitor, partial curve]"},
      {"molecule": "Cc1nn(-c2ccccc2)c(N)c1C(c1ccccc1)c1c(C)nn(-c2ccccc2)c1N", "Potency": "inactive"},
      {"molecule": "CN(C)c1ccc(C(=O)OCC(=O)NC2CCCCCC2)cc1", "Potency": "inactive"},
      {"molecule": "NC(=NCCCCCCN=C(N)/N=C(\\N)Nc1ccc(Cl)cc1)/N=C(\\N)Nc1ccc(Cl)cc1", "Potency": "inconclusive: 89.1 µM [inhibitor, single point]"},
      {"molecule": "Cc1cccc(-n2ncc3c2CCCC3NC(=O)Cn2cccn2)c1C", "note": "(stereo unspecified)", "Potency": "inconclusive: 70.8 µM [inhibitor, single point]"},
      {"molecule": "CCOC(=O)C1CCCN(C(=O)c2ccc(F)c(C)c2)CC1", "note": "(stereo unspecified)", "Potency": "inactive"},
      {"molecule": "CC(C)c1ccc(Nc2nnns2)cc1", "Potency": "inconclusive: 10 µM [inhibitor, full curve]"},
      {"molecule": "CC(C)(C)C(=O)Nc1ccc(S(=O)(=O)N2CCC(c3nc4ccccc4[nH]3)CC2)cc1", "Potency": "inactive"},
      {"molecule": "O=C1ON=C(c2ccccc2)/C1=C/c1ccc(O)c(O)c1", "Potency": "inconclusive: 4.23 µM [inhibitor, partial curve]"}
    ]}
  ]
}
